# Measurements reported in PubChem BioAssay AID1224830 (NIAID, 2016)
# Assay: 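Host factors that control LPS-induced TNF expression in human macrophages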 (primary screen)
# Cell system: human THP-1 monocytic leukaemia cells, TNF dual-luciferase reporter clone, PMA-differentiated to macrophage-like cells
# Reagents: siRNA pool against human genes, 50 nM
# Duration: LPS for 4 h, given about 3 days after siRNA transfection
# Conditions: bacterial LPS (TLR4 ligand), 10 ng/ml
# Read-out: 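TNF firefly reporter luminescence divided by renilla, normalised to the plate median, then turned into a robust z-score for each replicate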
# Direction: TNF reporter robust z-score: higher = stronger TNF reporter response to LPS
# Call rule: 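Each well counts as active if its z-score is over 2.8 or under -1.5; controls are left without a call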
# Here is an unselected part of about 18,000 reagents. About 2,900 of all reagents (16%) were called active. 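Calls are made per well; low scores hint the gene aids the LPS response, high scores that it dampens it.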 Repeated entries: four replicate wells of each siRNA pool.
Gene,TNF reporter robust z-score,outcome
FMOD (fibromodulin),-0.52,inactive
FMOD (fibromodulin),-0.62,inactive
FMOD (fibromodulin),-1,inactive
FMOD (fibromodulin),-0.25,inactive
ADAT3 (adenosine deaminase tRNA specific 3),-0.11,inactive
ADAT3 (adenosine deaminase tRNA specific 3),0.03,inactive
ADAT3 (adenosine deaminase tRNA specific 3),-0.84,inactive
ADAT3 (adenosine deaminase tRNA specific 3),-0.23,inactive
PLD6 (phospholipase D family member 6),-1.57,active
PLD6 (phospholipase D family member 6),0.67,inactive
PLD6 (phospholipase D family member 6),0.28,inactive
PLD6 (phospholipase D family member 6),1.54,inactive
ZSCAN16 (zinc finger and SCAN domain containing 16),-0.55,inactive
ZSCAN16 (zinc finger and SCAN domain containing 16),-0.24,inactive
ZSCAN16 (zinc finger and SCAN domain containing 16),-0.35,inactive
ZSCAN16 (zinc finger and SCAN domain containing 16),0.75,inactive
"PSMD6 (proteasome 26S subunit, non-ATPase 6)",-1.61,active
"PSMD6 (proteasome 26S subunit, non-ATPase 6)",-1.52,active
"PSMD6 (proteasome 26S subunit, non-ATPase 6)",-0.75,inactive
"PSMD6 (proteasome 26S subunit, non-ATPase 6)",-0.38,inactive
MRPL39 (mitochondrial ribosomal protein L39),,inactive
MRPL39 (mitochondrial ribosomal protein L39),-0.02,inactive
MRPL39 (mitochondrial ribosomal protein L39),-0.48,inactive
MRPL39 (mitochondrial ribosomal protein L39),-0.6,inactive
MRPL39 (mitochondrial ribosomal protein L39),0.02,inactive
RGCC (regulator of cell cycle),-0.27,inactive
RGCC (regulator of cell cycle),-1.13,inactive
RGCC (regulator of cell cycle),-1.08,inactive
RGCC (regulator of cell cycle),-1.3,inactive
SEMA3C (semaphorin 3C),-0.84,inactive
SEMA3C (semaphorin 3C),-0.73,inactive
SEMA3C (semaphorin 3C),0.11,inactive
SEMA3C (semaphorin 3C),0.13,inactive
RIPOR2 (RHO family interacting cell polarization regulator 2),-1.58,active
RIPOR2 (RHO family interacting cell polarization regulator 2),-1.52,active
RIPOR2 (RHO family interacting cell polarization regulator 2),-1.64,active
RIPOR2 (RHO family interacting cell polarization regulator 2),-1.27,inactive
SNRPD1 (small nuclear ribonucleoprotein D1 polypeptide),1.41,inactive
SNRPD1 (small nuclear ribonucleoprotein D1 polypeptide),1.08,inactive
SNRPD1 (small nuclear ribonucleoprotein D1 polypeptide),1.03,inactive
SNRPD1 (small nuclear ribonucleoprotein D1 polypeptide),1.18,inactive
"SEC24D (SEC24 homolog D, COPII component)",0.51,inactive
"SEC24D (SEC24 homolog D, COPII component)",0.25,inactive
"SEC24D (SEC24 homolog D, COPII component)",0.13,inactive
"SEC24D (SEC24 homolog D, COPII component)",0.28,inactive
PTGDS (prostaglandin D2 synthase),0.16,inactive
PTGDS (prostaglandin D2 synthase),0.17,inactive
PTGDS (prostaglandin D2 synthase),0.13,inactive
PTGDS (prostaglandin D2 synthase),0.23,inactive
GOLGA8G (golgin A8 family member G),-0.52,inactive
GOLGA8G (golgin A8 family member G),0.16,inactive
GOLGA8G (golgin A8 family member G),0,inactive
GOLGA8G (golgin A8 family member G),1.23,inactive

The list goes on.
Gene,TNF reporter robust z-score,outcome
PIAS2 (protein inhibitor of activated STAT 2),0.52,inactive
PIAS2 (protein inhibitor of activated STAT 2),0.43,inactive
PIAS2 (protein inhibitor of activated STAT 2),0.03,inactive
PIAS2 (protein inhibitor of activated STAT 2),-0.27,inactive
ALOXE3 (arachidonate epidermal lipoxygenase 3),-0.05,inactive
ALOXE3 (arachidonate epidermal lipoxygenase 3),-1.02,inactive
ALOXE3 (arachidonate epidermal lipoxygenase 3),-0.06,inactive
ALOXE3 (arachidonate epidermal lipoxygenase 3),1.8,inactive
BFSP1 (beaded filament structural protein 1),2.21,inactive
BFSP1 (beaded filament structural protein 1),3.2,active
BFSP1 (beaded filament structural protein 1),0.72,inactive
BFSP1 (beaded filament structural protein 1),1.1,inactive
SYT2 (synaptotagmin 2),2.71,inactive
SYT2 (synaptotagmin 2),1.47,inactive
SYT2 (synaptotagmin 2),0.5,inactive
SYT2 (synaptotagmin 2),-0.3,inactive
KANK3 (KN motif and ankyrin repeat domains 3),-0.11,inactive
KANK3 (KN motif and ankyrin repeat domains 3),0.01,inactive
KANK3 (KN motif and ankyrin repeat domains 3),0.54,inactive
KANK3 (KN motif and ankyrin repeat domains 3),-0.49,inactive
POU4F1 (POU class 4 homeobox 1),0.78,inactive
POU4F1 (POU class 4 homeobox 1),0.91,inactive
POU4F1 (POU class 4 homeobox 1),0.95,inactive
POU4F1 (POU class 4 homeobox 1),1.06,inactive
SH2D1B (SH2 domain containing 1B),0.48,inactive
SH2D1B (SH2 domain containing 1B),1.25,inactive
SH2D1B (SH2 domain containing 1B),0.89,inactive
SH2D1B (SH2 domain containing 1B),1.01,inactive
SLC25A44,-1.49,inactive
SLC25A44,-1.54,active
SLC25A44,-1.63,active
SLC25A44,-1.29,inactive
ABCB7 (ATP binding cassette subfamily B member 7),0.28,inactive
ABCB7 (ATP binding cassette subfamily B member 7),1.08,inactive
ABCB7 (ATP binding cassette subfamily B member 7),0.9,inactive
ABCB7 (ATP binding cassette subfamily B member 7),2.5,inactive
CGREF1 (cell growth regulator with EF-hand domain 1),2.8,active
CGREF1 (cell growth regulator with EF-hand domain 1),1.6,inactive
CGREF1 (cell growth regulator with EF-hand domain 1),-0.59,inactive
CGREF1 (cell growth regulator with EF-hand domain 1),-0.48,inactive
VLDLR (very low density lipoprotein receptor),-0.15,inactive
VLDLR (very low density lipoprotein receptor),2.52,inactive
VLDLR (very low density lipoprotein receptor),-0.01,inactive
VLDLR (very low density lipoprotein receptor),3.67,active
COQ10B (coenzyme Q10B),1.54,inactive
COQ10B (coenzyme Q10B),0.93,inactive
COQ10B (coenzyme Q10B),0.73,inactive
COQ10B (coenzyme Q10B),1.66,inactive
VPS39 (VPS39 subunit of HOPS complex),1.51,inactive
VPS39 (VPS39 subunit of HOPS complex),1.95,inactive
VPS39 (VPS39 subunit of HOPS complex),-0.7,inactive
VPS39 (VPS39 subunit of HOPS complex),-0.68,inactive
EVX2 (even-skipped homeobox 2),-0.13,inactive
EVX2 (even-skipped homeobox 2),0.23,inactive
EVX2 (even-skipped homeobox 2),-0.36,inactive
EVX2 (even-skipped homeobox 2),0.83,inactive
BBS7 (Bardet-Biedl syndrome 7),0.64,inactive
BBS7 (Bardet-Biedl syndrome 7),0.55,inactive
BBS7 (Bardet-Biedl syndrome 7),0.04,inactive
BBS7 (Bardet-Biedl syndrome 7),2.06,inactive
